Values from PubChem BioAssay AID504793 (Drosophila RNAi Screening Center, 2011).
The screen tested about 23,000 reagents; below is a random part of those with a known target gene and a result. In the full data, 62 (0.27%) were called active. 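Calls come from follow-up tests whose scores are not deposited, so confirmed genes may have low counts here; counts are not normalised per plate.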 Raw values vary from plate to plate and are shown uncorrected.

Test: 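Knock-downs allowing continued mitosis even though DNA is damaged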 (primary screen)
System: Drosophila S2R+ cells
Reagent: long dsRNA against Drosophila genes, about 0.25 µg dsRNA per well
Time to read-out: 4 days of dsRNA, then 4 hours of drug before read-out
Challenge: doxorubicin 0.5 µM for 4 hours to cause double-strand breaks, in cells also given a low, harmless dose of dsRNA against nbs to sensitise the assay
Read-out: 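Per-well count of mitotic cells stained for phospho-histone H3 after doxorubicin exposure, used as mitotic index; counts are raw and not normalised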
Direction: mitotic cells: higher = more cells in mitosis, weaker G2 arrest
Call rule: 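Genes are called active only when high mitotic counts were reproduced with independent dsRNAs and mitosis was checked for delay without damage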
Meaning of the calls: active = confirmed in follow-up tests; inactive = not confirmed

no.	predicted target	dsRNA	mitotic cells, replicate 1	outcome
1	Blos1	DRSC05970	5	inactive
2	CG17217	DRSC02592	11	inactive
3	CG13999	DRSC02331	10	inactive
4	CG13999	DRSC29521	4	inactive
5	Rpp25	DRSC05002	13	inactive
6	CG15111	DRSC21467	6	inactive
7	CG17270	DRSC15209	9	inactive
8	Sou	DRSC04356	2	inactive
9	Galphaf	DRSC11171	5	inactive
10	Tpst	DRSC18989	14	inactive
11	Tpst	DRSC19696	12	inactive
12	Tpst	DRSC19723	10	inactive
13	Tpst	DRSC24990	4	inactive
14	Tpst	DRSC25122	10	inactive
15	Tpst	DRSC25422	10	inactive
16	CG17726	DRSC15255	15	inactive
17	ringer	DRSC10455	8	inactive
18	ThrRS	DRSC02843	6	inactive
19	SA1	DRSC03424	8	inactive
20	SA1	DRSC28222	10	inactive
21	wcy	DRSC20132	8	inactive
22	wcy	DRSC26455	4	inactive
23	CG17147	DRSC10249	8	inactive
24	CG17147	DRSC29813	5	inactive
25	Spp	DRSC00328	5	inactive
26	CG6693	DRSC28189	5	inactive
27	rho-7	DRSC07304	6	inactive
28	CG31949	DRSC00110	7	inactive
29	RhoGEF2	DRSC07531	7	inactive
30	RhoGEF2	DRSC29373	5	inactive
31	Whamy	DRSC14574	2	inactive
32	Whamy	DRSC28119	14	inactive
33	CG31496	DRSC12547	5	inactive
34	CG31496	DRSC27899	6	inactive
35	Cpr65Aw	DRSC08794	4	inactive
36	ana3	DRSC06289	3	inactive
37	ana3	DRSC28049	6	inactive
38	CG4133	DRSC23122	7	inactive
39	tyn	DRSC20652	4	inactive
40	fred	DRSC00349	4	inactive
41	fred	DRSC00599	10	inactive
42	fred	DRSC00601	3	inactive
43	fred	DRSC00602	3	inactive
44	fred	DRSC21906	14	inactive
45	EbpII	DRSC04637	11	inactive
46	EbpII	DRSC22484	13	inactive
47	EbpII	DRSC29557	2	inactive

Sorted by “mitotic cells, replicate 1” (high to low): some entries from above
predicted target	dsRNA	mitotic cells, replicate 1	outcome
Tpst	DRSC18989	14	inactive
Rpp25	DRSC05002	13	inactive
Tpst	DRSC19696	12	inactive
Tpst	DRSC19723	10	inactive
CG17270	DRSC15209	9	inactive
CG15111	DRSC21467	6	inactive
Galphaf	DRSC11171	5	inactive
Sou	DRSC04356	2	inactive
